Source: patent US20230119324A1, “EGFR INHIBITION TRIGGERS AN ADAPTIVE RESPONSE BY CO-OPTING ANTIVIRAL SIGNALING PATHWAYS IN LUNG CANCER” (The United States Government as represented by the …, priority 2020, published 2023)
At least one structure is not confirmed: it was looked up by name or label, or the drawing left a doubt.

System: Type I interferons (IFNα1, IFNβ1)
Assay: qPCR and ELISA for Type I interferons in NSCLC cell lines
Assay type: cell-based, human
Conditions: H1975 cells (L858R/T790M), 0.1 µM Afatinib
Procedure: Total RNA was isolated by TRIzol Reagent (Fisher Scientific). cDNA Reverse Transcription was performed by using High-Capacity cDNA Reverse Transcription Kit (Applied Biosystems). PCR primers were synthesized by IDT (Coralville, IA). Each PCR reaction was carried out in triplicate in a 20 µl volume using SYBR Green Master Mix (Applied Biosystems) for 15 minutes at 95° C. for initial denaturing, followed by 40 cycles of 95° C. for 15 s and 60° C. for 60 s in ViiA 7 Real-Time PCR System (Applied Biosystems). At least three independent experiments were done. Values for each gene were normalized to expression levels of ACTB (β-Actin) mRNA. Primer sequences were as follows.
To detect IFNα and IFNβ levels in medium, cells were cultured in serum free medium and treated with indicated drugs for 48 hours. […] Total protein concentrations were determined by Pierce BCA Protein Assay Kit (Fisher Scientific). Then, the levels of IFNα and IFNβ protein were measured by ELISA using human IFNα ELISA kit (41100) and human IFNβ ELISA kit (41440), from PBL Assay Science (Piscataway, NJ) according to the manufacturer’s protocol. […]
IFNα1 and IFNβ1 mRNA levels were detected by qPCR with β-Actin as the loading control.
IFNα1 and IFNβ1 mRNA levels were detected by qPCR. β-Actin was used as the loading control. […]
The protein concentration of IFNα1 and IFNβ1 in cell lysates were measured by ELISA. […]

Compound: CN(C)C/C=C/C(=O)Nc1cc2c(Nc3ccc(F)c(Cl)c3)ncnc2cc1O[C@H]1CCOC1 [afatinib]
- Type I IFNs (IFNA1 and IFNB1 mRNA): induced
